Test results as given in patent publication US20050187581A1, “Methods of treating disorders with electric fields” (priority 2000, published 2005).

What was measured:
[1] = test system: ovariectomized rats
[2] = test system: restrained rats
[3] = after 60 min session, n=6, P<0.05

## CN1C(=O)CN=C(c2ccccc2)c2cc(Cl)ccc21 [diazepam]
[1]; after 60 min session, n=6
  Effect on restraint-induced increase of plasma glucose level: tendency to suppress
[1]; [3]
  Plasma lactate levels compared to the restraint alone group: significantly lower
  Plasma pyruvate levels compared to sham EF exposure group: significantly lower
[1]; restraint and diazepam, diazepam 30 min before start of session
  Elevation of plasma ACTH level, post- vs pre-session: 13.7 fold
[2]; diazepam 1 mg/kg B.W. i.p.
  Increase of plasma ACTH level by 30 min restraint, post vs pre: 2.3 fold
[2]; diazepam 1 mg/kg B.W. i.p. 30 min before restraint, mean ± S.E.
  Plasma ACTH level, pre-restraint: 358 ± 73 pg/mL
[2]; diazepam 1 mg/kg B.W. i.p., 30 min after start of restraint, mean ± S.E.
  Plasma ACTH level, post-restraint: 810 ± 121 pg/mL
